The supplement of paper PMC6411743
± gives the standard deviation of the averaged measurements. This is a selection; strong and weak results do not stand in their true shares.

Chains of the proteins cited; added tags and fusions are not shown. Lines headed by an entry give the natural chain unless they say otherwise; changes in a name come on top.
UniProt P11802: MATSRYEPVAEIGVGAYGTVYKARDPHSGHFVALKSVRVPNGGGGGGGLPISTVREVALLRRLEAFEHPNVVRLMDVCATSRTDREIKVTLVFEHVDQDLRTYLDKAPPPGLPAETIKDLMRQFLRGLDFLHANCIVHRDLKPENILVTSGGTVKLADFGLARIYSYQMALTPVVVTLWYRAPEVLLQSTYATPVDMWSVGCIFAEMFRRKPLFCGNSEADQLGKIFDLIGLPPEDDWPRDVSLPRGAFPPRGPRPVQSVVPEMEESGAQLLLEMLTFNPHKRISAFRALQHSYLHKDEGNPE
UniProt Q96CM8: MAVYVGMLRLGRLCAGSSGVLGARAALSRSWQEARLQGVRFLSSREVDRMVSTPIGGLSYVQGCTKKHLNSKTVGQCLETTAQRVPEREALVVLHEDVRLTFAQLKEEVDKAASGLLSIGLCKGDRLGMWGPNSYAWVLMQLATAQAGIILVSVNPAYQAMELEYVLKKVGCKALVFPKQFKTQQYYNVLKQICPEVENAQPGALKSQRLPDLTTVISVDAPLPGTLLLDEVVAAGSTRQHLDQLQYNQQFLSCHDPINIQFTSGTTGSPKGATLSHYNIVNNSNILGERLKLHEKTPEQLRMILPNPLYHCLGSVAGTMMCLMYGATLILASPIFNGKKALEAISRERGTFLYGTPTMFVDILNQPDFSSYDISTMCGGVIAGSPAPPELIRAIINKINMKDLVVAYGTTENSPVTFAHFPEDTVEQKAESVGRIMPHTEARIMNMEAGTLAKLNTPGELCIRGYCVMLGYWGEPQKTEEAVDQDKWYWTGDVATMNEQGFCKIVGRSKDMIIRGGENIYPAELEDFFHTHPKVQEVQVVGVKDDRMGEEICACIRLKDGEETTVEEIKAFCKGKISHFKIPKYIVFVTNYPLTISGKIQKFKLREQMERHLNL
UniProt P23588, whole entry: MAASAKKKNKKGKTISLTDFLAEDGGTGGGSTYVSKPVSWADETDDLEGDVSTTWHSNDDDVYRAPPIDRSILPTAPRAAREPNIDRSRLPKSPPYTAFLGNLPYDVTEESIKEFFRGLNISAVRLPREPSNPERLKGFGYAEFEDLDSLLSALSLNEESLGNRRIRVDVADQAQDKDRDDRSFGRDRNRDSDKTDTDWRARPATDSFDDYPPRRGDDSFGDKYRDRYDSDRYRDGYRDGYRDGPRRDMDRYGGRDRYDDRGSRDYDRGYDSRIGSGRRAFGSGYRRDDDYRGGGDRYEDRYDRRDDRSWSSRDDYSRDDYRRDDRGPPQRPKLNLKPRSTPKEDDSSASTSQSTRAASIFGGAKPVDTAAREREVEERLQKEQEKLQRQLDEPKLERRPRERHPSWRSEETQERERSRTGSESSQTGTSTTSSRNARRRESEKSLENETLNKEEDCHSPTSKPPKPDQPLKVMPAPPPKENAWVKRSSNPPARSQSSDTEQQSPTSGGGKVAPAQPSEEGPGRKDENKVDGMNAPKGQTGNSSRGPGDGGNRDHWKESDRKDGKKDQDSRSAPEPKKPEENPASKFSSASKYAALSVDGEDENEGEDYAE
UniProt Q9UNP9: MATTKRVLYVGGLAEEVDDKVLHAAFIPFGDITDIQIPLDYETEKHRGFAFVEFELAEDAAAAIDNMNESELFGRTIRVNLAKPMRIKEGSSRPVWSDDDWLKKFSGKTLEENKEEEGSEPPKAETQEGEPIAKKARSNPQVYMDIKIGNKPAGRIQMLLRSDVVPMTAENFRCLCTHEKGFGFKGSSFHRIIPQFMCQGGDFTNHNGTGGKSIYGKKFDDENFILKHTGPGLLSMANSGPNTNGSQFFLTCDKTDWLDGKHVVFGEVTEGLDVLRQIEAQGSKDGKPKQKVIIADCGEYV
UniProt P48382: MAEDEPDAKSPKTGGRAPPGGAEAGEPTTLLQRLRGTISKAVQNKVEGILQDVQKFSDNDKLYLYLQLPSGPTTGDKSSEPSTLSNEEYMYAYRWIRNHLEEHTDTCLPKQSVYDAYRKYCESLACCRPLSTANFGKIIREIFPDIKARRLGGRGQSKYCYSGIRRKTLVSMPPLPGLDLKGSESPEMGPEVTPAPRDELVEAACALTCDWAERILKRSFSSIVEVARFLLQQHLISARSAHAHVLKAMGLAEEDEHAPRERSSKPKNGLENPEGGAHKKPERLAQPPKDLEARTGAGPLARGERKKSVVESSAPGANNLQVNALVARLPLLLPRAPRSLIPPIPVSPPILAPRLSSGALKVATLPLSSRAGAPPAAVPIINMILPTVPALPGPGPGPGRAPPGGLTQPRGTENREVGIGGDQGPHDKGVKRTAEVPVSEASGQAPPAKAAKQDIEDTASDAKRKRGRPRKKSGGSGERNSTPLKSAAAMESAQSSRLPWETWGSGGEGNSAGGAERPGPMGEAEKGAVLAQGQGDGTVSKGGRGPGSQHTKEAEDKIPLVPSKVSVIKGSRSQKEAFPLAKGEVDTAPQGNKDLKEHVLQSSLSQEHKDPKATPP
UniProt O75347: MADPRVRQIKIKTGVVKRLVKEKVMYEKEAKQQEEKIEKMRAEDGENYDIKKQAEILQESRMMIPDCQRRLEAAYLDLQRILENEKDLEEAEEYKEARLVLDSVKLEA
UniProt Q8TAQ2, whole entry: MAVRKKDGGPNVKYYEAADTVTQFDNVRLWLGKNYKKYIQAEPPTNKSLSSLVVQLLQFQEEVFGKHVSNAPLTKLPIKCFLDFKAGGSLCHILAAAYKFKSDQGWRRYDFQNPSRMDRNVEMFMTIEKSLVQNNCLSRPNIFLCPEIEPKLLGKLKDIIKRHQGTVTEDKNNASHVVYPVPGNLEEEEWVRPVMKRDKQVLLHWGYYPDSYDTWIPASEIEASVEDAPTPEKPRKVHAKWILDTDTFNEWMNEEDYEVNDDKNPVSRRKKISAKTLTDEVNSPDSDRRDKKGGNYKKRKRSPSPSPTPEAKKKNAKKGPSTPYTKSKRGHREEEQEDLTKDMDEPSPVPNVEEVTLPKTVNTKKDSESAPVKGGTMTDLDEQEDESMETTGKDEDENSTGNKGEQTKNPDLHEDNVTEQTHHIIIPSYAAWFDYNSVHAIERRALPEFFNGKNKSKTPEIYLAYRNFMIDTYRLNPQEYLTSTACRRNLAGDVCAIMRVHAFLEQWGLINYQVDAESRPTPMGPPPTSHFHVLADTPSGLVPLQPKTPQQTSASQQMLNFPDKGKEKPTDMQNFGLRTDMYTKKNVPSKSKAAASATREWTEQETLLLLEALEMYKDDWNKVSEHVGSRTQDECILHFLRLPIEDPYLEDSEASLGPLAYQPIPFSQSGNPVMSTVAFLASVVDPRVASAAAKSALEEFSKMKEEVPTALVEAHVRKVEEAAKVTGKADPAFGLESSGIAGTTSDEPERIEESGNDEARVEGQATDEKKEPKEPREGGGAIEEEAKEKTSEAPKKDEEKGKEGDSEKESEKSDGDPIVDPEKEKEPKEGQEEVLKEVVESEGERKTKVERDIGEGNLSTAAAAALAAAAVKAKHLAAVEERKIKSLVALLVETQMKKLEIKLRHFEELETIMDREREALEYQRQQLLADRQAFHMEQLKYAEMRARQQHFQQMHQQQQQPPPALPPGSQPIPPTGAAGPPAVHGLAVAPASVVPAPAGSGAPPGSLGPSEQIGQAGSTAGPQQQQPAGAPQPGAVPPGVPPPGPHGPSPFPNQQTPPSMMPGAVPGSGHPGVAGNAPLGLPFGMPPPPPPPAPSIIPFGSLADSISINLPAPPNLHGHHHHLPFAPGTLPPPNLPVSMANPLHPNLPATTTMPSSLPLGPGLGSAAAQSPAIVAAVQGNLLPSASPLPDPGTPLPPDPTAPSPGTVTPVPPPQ
UniProt P25786: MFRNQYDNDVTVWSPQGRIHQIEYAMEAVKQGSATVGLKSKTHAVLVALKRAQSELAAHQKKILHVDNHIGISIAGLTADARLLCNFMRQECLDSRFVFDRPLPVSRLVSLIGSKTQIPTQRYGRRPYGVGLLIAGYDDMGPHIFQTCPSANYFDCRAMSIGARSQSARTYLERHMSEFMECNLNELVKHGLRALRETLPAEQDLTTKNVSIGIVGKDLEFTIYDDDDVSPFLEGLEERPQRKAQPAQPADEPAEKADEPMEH
UniProt P08133: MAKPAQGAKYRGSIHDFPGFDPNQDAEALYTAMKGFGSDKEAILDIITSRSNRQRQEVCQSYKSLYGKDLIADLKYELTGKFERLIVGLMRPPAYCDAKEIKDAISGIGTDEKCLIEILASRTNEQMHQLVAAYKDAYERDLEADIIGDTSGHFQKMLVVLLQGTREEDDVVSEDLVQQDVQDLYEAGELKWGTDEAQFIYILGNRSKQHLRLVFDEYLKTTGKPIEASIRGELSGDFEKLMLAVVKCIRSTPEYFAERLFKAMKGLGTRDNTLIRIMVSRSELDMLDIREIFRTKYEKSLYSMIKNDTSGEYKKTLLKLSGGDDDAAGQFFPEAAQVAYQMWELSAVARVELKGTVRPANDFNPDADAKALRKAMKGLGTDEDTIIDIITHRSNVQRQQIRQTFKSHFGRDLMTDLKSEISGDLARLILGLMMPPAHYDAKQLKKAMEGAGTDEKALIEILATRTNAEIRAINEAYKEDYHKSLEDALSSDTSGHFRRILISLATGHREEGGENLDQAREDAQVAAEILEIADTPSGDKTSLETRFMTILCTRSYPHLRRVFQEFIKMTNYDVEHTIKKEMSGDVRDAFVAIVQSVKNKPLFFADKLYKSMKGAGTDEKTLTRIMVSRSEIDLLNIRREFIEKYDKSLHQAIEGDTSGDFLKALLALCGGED
UniProt Q8N4H5: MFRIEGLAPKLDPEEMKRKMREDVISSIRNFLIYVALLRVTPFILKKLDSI
UniProt O14683: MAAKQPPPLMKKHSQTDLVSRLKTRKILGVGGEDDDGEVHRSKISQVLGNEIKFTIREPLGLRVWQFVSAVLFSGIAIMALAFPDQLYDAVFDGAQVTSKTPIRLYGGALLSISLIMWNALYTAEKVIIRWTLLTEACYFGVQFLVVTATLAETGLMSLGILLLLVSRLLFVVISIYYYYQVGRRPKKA
UniProt P63104: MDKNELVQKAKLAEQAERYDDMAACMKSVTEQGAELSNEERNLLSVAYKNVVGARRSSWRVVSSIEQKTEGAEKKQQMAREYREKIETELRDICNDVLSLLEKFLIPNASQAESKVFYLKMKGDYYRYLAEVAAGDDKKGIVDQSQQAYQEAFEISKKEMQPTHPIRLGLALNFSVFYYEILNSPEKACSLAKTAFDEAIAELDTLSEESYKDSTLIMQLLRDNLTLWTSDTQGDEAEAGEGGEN
UniProt Q9Y2W6: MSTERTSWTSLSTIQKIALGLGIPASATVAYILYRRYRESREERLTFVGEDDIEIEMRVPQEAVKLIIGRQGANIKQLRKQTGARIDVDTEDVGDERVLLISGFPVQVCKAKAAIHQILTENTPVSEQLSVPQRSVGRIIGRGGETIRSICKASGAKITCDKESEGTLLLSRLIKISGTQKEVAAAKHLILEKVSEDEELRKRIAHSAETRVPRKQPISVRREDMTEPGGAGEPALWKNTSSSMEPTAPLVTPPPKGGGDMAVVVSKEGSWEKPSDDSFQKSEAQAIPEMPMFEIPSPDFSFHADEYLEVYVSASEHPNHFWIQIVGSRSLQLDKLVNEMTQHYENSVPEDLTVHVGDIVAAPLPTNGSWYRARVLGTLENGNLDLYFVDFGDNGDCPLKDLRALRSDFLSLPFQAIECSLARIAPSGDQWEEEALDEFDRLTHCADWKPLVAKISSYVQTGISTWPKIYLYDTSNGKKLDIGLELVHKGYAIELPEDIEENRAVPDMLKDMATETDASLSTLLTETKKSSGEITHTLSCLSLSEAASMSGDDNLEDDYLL
UniProt Q9Y3C0: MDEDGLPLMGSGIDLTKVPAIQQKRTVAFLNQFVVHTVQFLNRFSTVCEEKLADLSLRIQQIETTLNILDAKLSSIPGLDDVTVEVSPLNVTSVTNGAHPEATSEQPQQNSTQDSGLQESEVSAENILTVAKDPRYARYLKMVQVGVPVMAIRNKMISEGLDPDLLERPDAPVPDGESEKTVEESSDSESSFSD
UniProt O00255, whole entry: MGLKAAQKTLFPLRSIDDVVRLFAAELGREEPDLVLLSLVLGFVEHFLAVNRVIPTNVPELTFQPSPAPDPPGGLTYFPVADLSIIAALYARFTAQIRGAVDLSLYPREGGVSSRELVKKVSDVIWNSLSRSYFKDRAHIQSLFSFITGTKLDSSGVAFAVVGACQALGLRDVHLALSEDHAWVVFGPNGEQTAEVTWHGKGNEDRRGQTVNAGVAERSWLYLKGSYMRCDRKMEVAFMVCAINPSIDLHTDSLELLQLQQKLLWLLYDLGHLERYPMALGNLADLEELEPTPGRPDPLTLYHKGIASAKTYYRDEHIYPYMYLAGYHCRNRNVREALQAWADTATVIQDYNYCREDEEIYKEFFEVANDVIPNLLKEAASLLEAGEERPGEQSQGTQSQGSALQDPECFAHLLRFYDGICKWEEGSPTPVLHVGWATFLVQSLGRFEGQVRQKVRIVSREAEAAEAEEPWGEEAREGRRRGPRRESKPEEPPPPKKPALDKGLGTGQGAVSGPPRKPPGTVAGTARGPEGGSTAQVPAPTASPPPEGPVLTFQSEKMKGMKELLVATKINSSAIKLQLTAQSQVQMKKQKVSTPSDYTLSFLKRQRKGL

Compound: Nc1ncnc2c1ncn2[C@@H]1O[C@H](COP(=O)(O)OP(=O)(O)NP(=O)(O)O)[C@@H](O)[C@H]1O [adenylyl imidodiphosphate]
Assay: NP40-soluble protein abundance relative to vehicle (solubility fold change) (ratio); higher = more soluble protein in presence of AMP-PNP
How it was run: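 Jurkat crude lysate prepared with a Dounce homogeniser was treated at eight concentrations spanning 0.1 to 10 mM, 10 min at room temperature then 3 min at 37 °C. Solubilisation with 0.8% NP40 and benzonase and ultracentrifugation preceded TMT labelling of the supernatant for LC-MS/MS. Fold change against the detergent-processed vehicle was determined per replicate from vsn-normalised intensities, across three independent experiments.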

Target	NP40-soluble protein abundance (concentration: 1mM)	NP40-soluble protein abundance (concentration: 2mM)	NP40-soluble protein abundance (concentration: 4mM)	NP40-soluble protein abundance (concentration: 6mM)	NP40-soluble protein abundance (concentration: 8mM)	NP40-soluble protein abundance (concentration: 10mM)
E9PG19 and related entries (UniProt O94868)	1.01 ± 0.013	1.03 ± 0.042	1.01 ± 0.046	0.978 ± 0.015	0.948 ± 0.04	0.983 ± 0.038
F2Z2X0 and related entries (UniProt O00746)	1.04 ± 0.023	1.024 ± 0.0089	1.02 ± 0.022	1.04 ± 0.049	1.059 ± 0.0034	1.04 ± 0.047
E9PK26 and related entries (UniProt Q9NRS6)	0.977 ± 0.02	0.96 ± 0.034	0.998 ± 0.024	0.967 ± 0.028	1 ± 0.025	0.984 ± 0.029
E9PDP5 and related entries (UniProt Q8IWZ3)	1.03 ± 0.037	1.06 ± 0.043	1.05 ± 0.072	1.02 ± 0.051	0.977 ± 0.051	0.997 ± 0.045
E7EQA9 and related entries (UniProt Q92844)	1.001 ± 0.0025	1.07 ± 0.084	0.981 ± 0.024	0.988 ± 0.026	0.946 ± 0.014	0.955 ± 0.038
E9PHI4 and related entries (UniProt O94901)	1.013 ± 0.0091	1.004 ± 0.0045	0.9999 ± 0.007	0.977 ± 0.027	0.96 ± 0.021	0.98 ± 0.017
F8VTV8 and related entries (UniProt P11802)	0.979 ± 0.047	0.987 ± 0.033	0.9901 ± 0.0058	0.976 ± 0.043	1 ± 0.029	0.967 ± 0.062
E9PS74 and related entries (UniProt Q8NBI5)	0.992 ± 0.056	1.01 ± 0.035	0.965 ± 0.04	0.985 ± 0.033	0.994 ± 0.046	0.983 ± 0.0088
E9PF16 and related entries (UniProt Q96CM8)	0.999 ± 0.037	0.948 ± 0.064	1.018 ± 0.0099	0.983 ± 0.025	1.03 ± 0.046	0.98 ± 0.05
E7ERD7 and related entries (UniProt Q9UKU0)	1 ± 0.016	1.02 ± 0.038	0.996 ± 0.032	0.983 ± 0.021	1 ± 0.013	0.986 ± 0.015
E7EX17 and related entries (UniProt P23588)	1.06 ± 0.06	1.14 ± 0.072	1.07 ± 0.031	1.08 ± 0.081	1.06 ± 0.036	1.11 ± 0.039
E9PM92 and related entries (UniProt O00193+E9PM92)	1.13 ± 0.04	1.18 ± 0.07	1.07 ± 0.037	1.03 ± 0.029	0.983 ± 0.03	1.02 ± 0.1
E7ER02 and related entries (UniProt Q9NZJ5)	1 ± 0.024	1.02 ± 0.044	1 ± 0.017	0.994 ± 0.022	0.97 ± 0.039	0.999 ± 0.011
E9PEQ6 and related entries (UniProt Q9UNP9)	0.993 ± 0.041	1 ± 0.031	0.983 ± 0.035	0.998 ± 0.064	0.954 ± 0.048	0.957 ± 0.046
E7EM83 and related entries (UniProt Q92932)	1.03 ± 0.017	1.04 ± 0.022	0.9895 ± 0.0089	0.996 ± 0.012	1.003 ± 0.0021	0.996 ± 0.026
F8WAE6 and related entries (UniProt Q86YW9)	0.957 ± 0.019	0.985 ± 0.019	0.9837 ± 0.0065	0.967 ± 0.027	0.984 ± 0.013	0.976 ± 0.02
E9PQY3 and related entries (UniProt P11117)	1.01 ± 0.017	1.04 ± 0.057	0.99 ± 0.038	0.984 ± 0.046	0.985 ± 0.025	0.961 ± 0.047
F8W689 and related entries (UniProt P48382)	1.016 ± 0.0037	1.09 ± 0.11	1.05 ± 0.045	1.1 ± 0.046	1.08 ± 0.054	1.09 ± 0.027
E5RIW3 and related entries (UniProt O75347)	1.11 ± 0.022	1.1 ± 0.06	1.05 ± 0.027	0.995 ± 0.05	0.964 ± 0.012	0.939 ± 0.1

Target	NP40-soluble protein abundance (concentration: 1mM)	NP40-soluble protein abundance (concentration: 2mM)	NP40-soluble protein abundance (concentration: 4mM)	NP40-soluble protein abundance (concentration: 6mM)	NP40-soluble protein abundance (concentration: 8mM)	NP40-soluble protein abundance (concentration: 10mM)
E7EXA6 and related entries (UniProt Q8WVB6)	0.983 ± 0.021	0.959 ± 0.046	1 ± 0.033	1.01 ± 0.028	1 ± 0.035	1 ± 0.062
F8VXC8 and related entries (UniProt Q8TAQ2)	1.03 ± 0.034	1.07 ± 0.04	1.04 ± 0.047	1.04 ± 0.1	1.04 ± 0.064	1.09 ± 0.1
F8WEA6 and related entries (UniProt O75439)	1.01 ± 0.032	0.994 ± 0.05	0.998 ± 0.022	0.99 ± 0.021	0.991 ± 0.02	0.99 ± 0.057
E9PJD7 and related entries (UniProt P0DTL6)	0.969 ± 0.023	0.968 ± 0.022	0.992 ± 0.015	1.01 ± 0.041	1.02 ± 0.028	0.981 ± 0.024
F6VUX8 and related entries (UniProt Q9HC77)	1 ± 0.012	1.02 ± 0.014	1.01 ± 0.027	1.02 ± 0.038	1.01 ± 0.051	1.02 ± 0.024
F5GX11 and related entries (UniProt P25786)	0.957 ± 0.045	0.959 ± 0.052	0.951 ± 0.071	1.02 ± 0.045	1.01 ± 0.067	1.04 ± 0.12
E9PHG5 and related entries (UniProt Q6UW02)	0.987 ± 0.054	0.975 ± 0.054	0.991 ± 0.042	1.01 ± 0.088	1.01 ± 0.063	0.999 ± 0.079
E5RK69 and related entries (UniProt P08133)	0.976 ± 0.038	0.955 ± 0.015	0.947 ± 0.046	1.01 ± 0.06	1.01 ± 0.06	0.99 ± 0.039
E9PQL0 and related entries (UniProt Q86UB9)	1 ± 0.016	1 ± 0.019	1.03 ± 0.045	1.04 ± 0.074	1.05 ± 0.066	1.05 ± 0.056
F8VRH0 and related entries (UniProt Q15366)	1.04 ± 0.013	1.08 ± 0.074	1.05 ± 0.039	1.07 ± 0.037	1.05 ± 0.062	1.08 ± 0.059
E9PGC8 (UniProt P78559)	1.03 ± 0.036	1.06 ± 0.027	1.03 ± 0.031	1.04 ± 0.052	1.01 ± 0.054	1.03 ± 0.077
F5GYQ1 and related entries (UniProt P61421)	1.01 ± 0.037	0.922 ± 0.086	0.939 ± 0.035	0.898 ± 0.071	0.924 ± 0.076	0.851 ± 0.062
F5H7T0 and related entries (UniProt Q96S38)	0.999 ± 0.0077	1.02 ± 0.028	1.01 ± 0.034	0.9695 ± 0.004	0.991 ± 0.023	0.965 ± 0.046
F8W8Z9 and related entries (UniProt Q8N4H5)	0.914 ± 0.056	0.861 ± 0.02	0.86 ± 0.055	0.92 ± 0.026	0.914 ± 0.078	0.871 ± 0.13
E9PBL8 and related entries (UniProt Q8WTW3)	0.992 ± 0.013	1.09 ± 0.054	0.99 ± 0.04	0.959 ± 0.019	0.953 ± 0.021	0.949 ± 0.039
E7EUI6 and related entries (UniProt P05556)	0.991 ± 0.026	1.09 ± 0.13	0.968 ± 0.056	0.9706 ± 0.009	0.929 ± 0.026	0.943 ± 0.026
F5H101 and related entries (UniProt Q76FK4)	1.088 ± 0.0085	1.17 ± 0.079	1.16 ± 0.013	1.18 ± 0.055	1.17 ± 0.022	1.26 ± 0.044
E7EUC4 and related entries (UniProt Q9NRH2)	1.02 ± 0.059	1.01 ± 0.035	1.01 ± 0.044	0.974 ± 0.059	0.992 ± 0.066	0.979 ± 0.062
E9PI30 and related entries (UniProt P56202)	0.986 ± 0.023	0.997 ± 0.016	0.984 ± 0.016	0.9712 ± 0.0083	0.96 ± 0.021	0.954 ± 0.04

Target	NP40-soluble protein abundance (concentration: 1mM)	NP40-soluble protein abundance (concentration: 2mM)	NP40-soluble protein abundance (concentration: 4mM)	NP40-soluble protein abundance (concentration: 6mM)	NP40-soluble protein abundance (concentration: 8mM)	NP40-soluble protein abundance (concentration: 10mM)
F5H5U2 and related entries (UniProt Q8NHQ9)	1.02 ± 0.02	1.01 ± 0.063	1.06 ± 0.034	1.08 ± 0.024	1.11 ± 0.018	1.11 ± 0.042
E9PIK4 and related entries (UniProt O14683)	0.961 ± 0.025	0.975 ± 0.013	0.953 ± 0.044	0.9157 ± 0.0029	0.913 ± 0.043	0.903 ± 0.053
F8VU39 and related entries (UniProt Q9UIF9)	1 ± 0.015	0.9926 ± 0.0061	1.023 ± 0.0073	1.02 ± 0.039	1.01 ± 0.014	1.03 ± 0.037
E7EVZ2 and related entries (UniProt P63104)	1.01 ± 0.029	1.1 ± 0.11	0.965 ± 0.061	1 ± 0.056	0.985 ± 0.025	0.957 ± 0.06
F5H7J9 and related entries (UniProt O75581)	0.992 ± 0.032	1 ± 0.061	0.972 ± 0.021	0.971 ± 0.061	0.98 ± 0.053	0.97 ± 0.01
E9PH64 and related entries (UniProt Q9Y6M9)	1.04 ± 0.08	1.15 ± 0.12	1.05 ± 0.052	1.04 ± 0.071	0.99 ± 0.015	1.01 ± 0.045
G0XQ39 and related entries (UniProt Q13586)	1.03 ± 0.025	1.07 ± 0.096	1 ± 0.038	0.983 ± 0.027	0.962 ± 0.026	0.962 ± 0.028
E7ETP9 and related entries (UniProt Q9UQV4)	0.99 ± 0.02	1.06 ± 0.073	1.019 ± 0.0017	0.997 ± 0.015	0.995 ± 0.036	1.03 ± 0.029
F5H1D6 and related entries (UniProt Q07864)	1.01 ± 0.013	0.98 ± 0.02	1.02 ± 0.024	0.9648 ± 0.0087	0.9483 ± 0.0083	0.952 ± 0.014
E9PI90 and related entries (UniProt Q9H061)	0.969 ± 0.054	0.881 ± 0.071	0.958 ± 0.035	0.962 ± 0.02	0.982 ± 0.019	0.924 ± 0.029
F6TB26 and related entries (UniProt Q9Y2W6)	0.995 ± 0.032	1.02 ± 0.036	0.999 ± 0.042	0.974 ± 0.039	0.963 ± 0.018	0.981 ± 0.019
F8WCF6 and related entries (UniProt P59998)	0.968 ± 0.014	0.891 ± 0.053	0.917 ± 0.021	0.914 ± 0.02	0.951 ± 0.046	0.878 ± 0.024
E9PLT2 and related entries (UniProt P17480)	1.08 ± 0.032	1.23 ± 0.06	1.32 ± 0.055	1.47 ± 0.026	1.56 ± 0.027	1.73 ± 0.044
E7ESL0 and related entries (UniProt Q9NWU5)	0.989 ± 0.076	0.962 ± 0.1	0.948 ± 0.11	0.932 ± 0.14	0.945 ± 0.11	0.949 ± 0.16
F5GZ97 and related entries (UniProt Q9Y3C0)	0.9847 ± 0.0098	1.04 ± 0.033	1.02 ± 0.033	1.02 ± 0.029	1.04 ± 0.014	1.1 ± 0.089
F5H8H2 and related entries (UniProt Q03426)	0.987 ± 0.025	0.934 ± 0.068	0.958 ± 0.039	0.919 ± 0.0089	0.935 ± 0.032	0.916 ± 0.017
E9PJI0 and related entries (UniProt Q5JPF3)	0.9631 ± 0.009	1 ± 0.076	0.959 ± 0.021	0.972 ± 0.014	0.959 ± 0.034	0.976 ± 0.058
E7EN32 and related entries (UniProt O00255)	1.06 ± 0.017	1.1 ± 0.024	1.16 ± 0.036	1.25 ± 0.03	1.25 ± 0.047	1.31 ± 0.026

Reformatted in CSV form: entries from further up
Target,NP40-soluble protein abundance (concentration: 1mM),NP40-soluble protein abundance (concentration: 2mM),NP40-soluble protein abundance (concentration: 4mM),NP40-soluble protein abundance (concentration: 6mM),NP40-soluble protein abundance (concentration: 8mM),NP40-soluble protein abundance (concentration: 10mM)
E9PG19 and related entries (UniProt O94868),1.01 ± 0.013,1.03 ± 0.042,1.01 ± 0.046,0.978 ± 0.015,0.948 ± 0.04,0.983 ± 0.038
E9PK26 and related entries (UniProt Q9NRS6),0.977 ± 0.02,0.96 ± 0.034,0.998 ± 0.024,0.967 ± 0.028,1 ± 0.025,0.984 ± 0.029
E7EQA9 and related entries (UniProt Q92844),1.001 ± 0.0025,1.07 ± 0.084,0.981 ± 0.024,0.988 ± 0.026,0.946 ± 0.014,0.955 ± 0.038
E9PS74 and related entries (UniProt Q8NBI5),0.992 ± 0.056,1.01 ± 0.035,0.965 ± 0.04,0.985 ± 0.033,0.994 ± 0.046,0.983 ± 0.0088
E7ER02 and related entries (UniProt Q9NZJ5),1 ± 0.024,1.02 ± 0.044,1 ± 0.017,0.994 ± 0.022,0.97 ± 0.039,0.999 ± 0.011
F8VXC8 and related entries (UniProt Q8TAQ2),1.03 ± 0.034,1.07 ± 0.04,1.04 ± 0.047,1.04 ± 0.1,1.04 ± 0.064,1.09 ± 0.1
F8W8Z9 and related entries (UniProt Q8N4H5),0.914 ± 0.056,0.861 ± 0.02,0.86 ± 0.055,0.92 ± 0.026,0.914 ± 0.078,0.871 ± 0.13
E9PBL8 and related entries (UniProt Q8WTW3),0.992 ± 0.013,1.09 ± 0.054,0.99 ± 0.04,0.959 ± 0.019,0.953 ± 0.021,0.949 ± 0.039
E7EUC4 and related entries (UniProt Q9NRH2),1.02 ± 0.059,1.01 ± 0.035,1.01 ± 0.044,0.974 ± 0.059,0.992 ± 0.066,0.979 ± 0.062
F8VU39 and related entries (UniProt Q9UIF9),1 ± 0.015,0.9926 ± 0.0061,1.023 ± 0.0073,1.02 ± 0.039,1.01 ± 0.014,1.03 ± 0.037
F5H7J9 and related entries (UniProt O75581),0.992 ± 0.032,1 ± 0.061,0.972 ± 0.021,0.971 ± 0.061,0.98 ± 0.053,0.97 ± 0.01
E7ETP9 and related entries (UniProt Q9UQV4),0.99 ± 0.02,1.06 ± 0.073,1.019 ± 0.0017,0.997 ± 0.015,0.995 ± 0.036,1.03 ± 0.029
F6TB26 and related entries (UniProt Q9Y2W6),0.995 ± 0.032,1.02 ± 0.036,0.999 ± 0.042,0.974 ± 0.039,0.963 ± 0.018,0.981 ± 0.019
E9PLT2 and related entries (UniProt P17480),1.08 ± 0.032,1.23 ± 0.06,1.32 ± 0.055,1.47 ± 0.026,1.56 ± 0.027,1.73 ± 0.044
F5GZ97 and related entries (UniProt Q9Y3C0),0.9847 ± 0.0098,1.04 ± 0.033,1.02 ± 0.033,1.02 ± 0.029,1.04 ± 0.014,1.1 ± 0.089
